Experimental data reported in PMC5717335.
Results are given in words; binding and its absence hold for the method and conditions named. For some of these results: Binding seen in cells or lysates may run through a third protein. Some binding calls cover weakened binding; strength is not graded here.

Chains of the proteins cited; added tags and fusions are not shown. Lines headed by an entry give the natural chain unless they say otherwise; changes in a name come on top.
UniProt O14777: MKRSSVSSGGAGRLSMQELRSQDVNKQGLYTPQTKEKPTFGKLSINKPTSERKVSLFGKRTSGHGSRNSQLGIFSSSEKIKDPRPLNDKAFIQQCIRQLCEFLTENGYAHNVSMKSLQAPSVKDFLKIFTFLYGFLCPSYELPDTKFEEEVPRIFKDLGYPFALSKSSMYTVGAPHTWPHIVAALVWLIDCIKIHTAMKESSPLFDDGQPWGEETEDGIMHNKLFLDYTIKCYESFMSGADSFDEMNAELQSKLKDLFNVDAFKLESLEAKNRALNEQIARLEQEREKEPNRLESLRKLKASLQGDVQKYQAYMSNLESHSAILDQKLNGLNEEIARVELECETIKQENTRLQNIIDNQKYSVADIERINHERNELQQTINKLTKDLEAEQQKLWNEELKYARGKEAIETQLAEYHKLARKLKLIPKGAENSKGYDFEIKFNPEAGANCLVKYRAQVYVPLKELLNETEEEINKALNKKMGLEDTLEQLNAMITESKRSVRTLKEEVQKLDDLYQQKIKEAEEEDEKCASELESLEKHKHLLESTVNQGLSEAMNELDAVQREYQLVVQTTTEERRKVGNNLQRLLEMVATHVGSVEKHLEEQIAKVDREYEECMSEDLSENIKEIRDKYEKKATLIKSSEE
UniProt Q96IK1: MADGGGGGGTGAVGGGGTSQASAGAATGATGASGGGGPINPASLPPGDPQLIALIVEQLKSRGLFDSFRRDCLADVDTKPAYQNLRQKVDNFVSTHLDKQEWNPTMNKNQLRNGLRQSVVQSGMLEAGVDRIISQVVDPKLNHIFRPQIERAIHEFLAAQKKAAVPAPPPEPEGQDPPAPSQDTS
UniProt Q8NBT2: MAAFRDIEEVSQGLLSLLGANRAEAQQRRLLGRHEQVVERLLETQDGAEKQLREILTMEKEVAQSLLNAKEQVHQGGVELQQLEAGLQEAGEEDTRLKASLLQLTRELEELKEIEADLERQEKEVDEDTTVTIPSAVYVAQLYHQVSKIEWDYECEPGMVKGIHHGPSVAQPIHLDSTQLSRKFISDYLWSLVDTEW
UniProt Q9BZD4: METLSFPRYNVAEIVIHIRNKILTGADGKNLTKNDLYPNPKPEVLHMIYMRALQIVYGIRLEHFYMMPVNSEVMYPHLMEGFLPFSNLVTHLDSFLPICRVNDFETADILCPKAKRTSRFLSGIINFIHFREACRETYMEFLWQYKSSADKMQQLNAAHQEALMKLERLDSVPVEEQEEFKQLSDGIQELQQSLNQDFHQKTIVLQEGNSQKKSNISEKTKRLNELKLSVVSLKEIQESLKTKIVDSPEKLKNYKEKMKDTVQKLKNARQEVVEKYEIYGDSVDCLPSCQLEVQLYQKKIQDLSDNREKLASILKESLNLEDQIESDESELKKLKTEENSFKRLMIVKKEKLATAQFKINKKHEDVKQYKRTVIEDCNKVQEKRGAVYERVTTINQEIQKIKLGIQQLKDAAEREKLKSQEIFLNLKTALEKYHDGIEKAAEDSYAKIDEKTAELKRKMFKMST

Key:
Ndc80/Nuf2–GST dimer [1] = biological target: Ndc80/Nuf2–GST dimer (UniProt O14777); assay: pull-down; 150 pmol Ndc80/Nuf2-GST dimer or Spc24-GST/Spc25 dimer immobilised on Sepharose beads, incubated with 1 nmol Bod1-MBP or MBP for 1 h; SDS-PAGE and immunoblot for MBP and GST; bound protein quantified relative to the input; n = 4; both purified
Ndc80/Nuf2–GST dimer [2] = biological target: Ndc80/Nuf2–GST dimer (UniProt O14777); assay: pull-down; Bod1-MBP with recombinant Ndc80/Nuf2–GST dimer or Spc24–GST/Spc25 dimer (supplementary figure S5b,c); conditions not shown; both purified
Bod1-GST (human) = Bod1-GST (human) (UniProt Q96IK1); assay: pull-down; purified Bod1-GST on Sepharose beads incubated with mitotic HeLa cell lysates; immunoblot for Ndc80, Nuf2 and Spc24; only the target purified

binding (Ndc80/Nuf2–GST dimer [1])	binding (Ndc80/Nuf2–GST dimer [2])	binding (Bod1-GST (human))	Substance
binds	binds		Bod1-MBP (from UniProt Q96IK1 1-185)
		binds	Spc24 (from UniProt Q8NBT2 1-197)
		binds	Nuf2 (from UniProt Q9BZD4 1-464)
